Drawing on doi:10.1101/2022.04.07.487451, this text covers binding for 3 molecules.

Results are given in words; binding and its absence hold for the method and conditions named. Binding seen in cells or lysates may run through a third protein. Binding calls can cover weak binding; strength is not graded here. For part of these data: Where a sequence is shown, tags or fusion partners need not be part of it.

Common to all, as to assay: co-IP
Experiment [1] addresses T1, NAP1-GFP (Arabidopsis thaliana) (UniProt Q5S2C4).
T1 sequence: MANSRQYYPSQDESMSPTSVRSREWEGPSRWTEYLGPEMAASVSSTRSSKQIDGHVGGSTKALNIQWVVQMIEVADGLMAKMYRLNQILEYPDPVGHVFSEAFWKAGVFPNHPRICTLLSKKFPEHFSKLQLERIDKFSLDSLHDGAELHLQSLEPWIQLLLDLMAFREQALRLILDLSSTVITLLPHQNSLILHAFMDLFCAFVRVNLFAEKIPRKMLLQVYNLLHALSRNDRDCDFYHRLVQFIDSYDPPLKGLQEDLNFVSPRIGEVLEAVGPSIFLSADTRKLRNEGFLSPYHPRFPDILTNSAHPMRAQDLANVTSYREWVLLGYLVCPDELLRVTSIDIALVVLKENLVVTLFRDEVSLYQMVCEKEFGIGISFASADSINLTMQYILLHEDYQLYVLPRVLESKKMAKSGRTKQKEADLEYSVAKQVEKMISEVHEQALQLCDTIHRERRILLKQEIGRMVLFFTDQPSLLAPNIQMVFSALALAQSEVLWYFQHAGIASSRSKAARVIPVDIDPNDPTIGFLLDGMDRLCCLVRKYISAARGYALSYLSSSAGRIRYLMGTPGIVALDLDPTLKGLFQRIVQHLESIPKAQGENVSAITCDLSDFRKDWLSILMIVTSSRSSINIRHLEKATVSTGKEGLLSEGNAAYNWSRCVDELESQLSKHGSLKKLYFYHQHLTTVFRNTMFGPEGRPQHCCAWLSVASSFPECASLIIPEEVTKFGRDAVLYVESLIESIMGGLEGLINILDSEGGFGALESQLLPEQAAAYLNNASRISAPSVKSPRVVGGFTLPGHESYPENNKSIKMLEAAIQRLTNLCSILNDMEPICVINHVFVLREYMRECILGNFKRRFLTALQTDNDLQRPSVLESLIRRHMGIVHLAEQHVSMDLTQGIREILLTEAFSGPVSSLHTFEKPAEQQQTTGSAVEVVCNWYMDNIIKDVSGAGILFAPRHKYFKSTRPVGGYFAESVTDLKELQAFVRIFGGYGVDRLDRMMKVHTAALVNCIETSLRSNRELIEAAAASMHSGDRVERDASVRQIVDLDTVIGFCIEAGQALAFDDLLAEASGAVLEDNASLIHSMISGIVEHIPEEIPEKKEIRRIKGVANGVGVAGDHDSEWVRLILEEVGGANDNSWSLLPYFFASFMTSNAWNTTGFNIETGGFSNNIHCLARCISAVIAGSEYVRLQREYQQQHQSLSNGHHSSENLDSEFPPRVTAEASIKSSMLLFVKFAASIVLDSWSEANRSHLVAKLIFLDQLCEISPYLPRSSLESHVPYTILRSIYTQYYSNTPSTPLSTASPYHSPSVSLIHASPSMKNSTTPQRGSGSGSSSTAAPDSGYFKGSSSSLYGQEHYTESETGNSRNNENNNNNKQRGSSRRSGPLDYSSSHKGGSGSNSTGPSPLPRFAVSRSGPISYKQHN

Experiment [2] has as its target GFP-ARPC2 (co-expressed with ATG8f-mRFP in Arabidopsis) (not stated (Arabidopsis thaliana or tobacco ARPC2 construct)).
The target of experiment [3] is GFP-ARPC5 (in tobacco leaves) (Arabidopsis thaliana).

Regarding AtARPC5-mCherry (Arabidopsis thaliana), the binding entry in experiment [1] is recorded as “binds”.

B1: ATG8f-mRFP (in Arabidopsis) (protein, UniProt Q8VYK7 1-117)
chain: MAKSSFKQEHDLEKRRAEAARIREKYPDRIPVIVEKAEKSDIPTIDKKKYLVPADLTVGQFVYVIRKRIKLSAEKAIFIFVDNVLPPAGALMSSVYEEKKDDDGFLYVTYSGENTFG
For the molecule B1, the binding entry in experiment [2] is “binds”.

B2: ATG8f-mRFP (in tobacco leaves) (protein, UniProt Q8VYK7 1-117)
chain: B1 chain
As for B2, in experiment [3], the binding entry is listed as “binds”.
